Measured values as given in the supplement of paper PMC10849652.
The list shows a part of the results. Residues, ends and D or L forms follow the SMILES beside them. *: point of attachment. Cbz = O=C(OCc1ccccc1)*

Sequences of proteins named here, by UniProt entry; tags and fusion partners are left off. A change or cut given only in a name is not applied to a line headed by its entry.
UniProt Q9NWT6: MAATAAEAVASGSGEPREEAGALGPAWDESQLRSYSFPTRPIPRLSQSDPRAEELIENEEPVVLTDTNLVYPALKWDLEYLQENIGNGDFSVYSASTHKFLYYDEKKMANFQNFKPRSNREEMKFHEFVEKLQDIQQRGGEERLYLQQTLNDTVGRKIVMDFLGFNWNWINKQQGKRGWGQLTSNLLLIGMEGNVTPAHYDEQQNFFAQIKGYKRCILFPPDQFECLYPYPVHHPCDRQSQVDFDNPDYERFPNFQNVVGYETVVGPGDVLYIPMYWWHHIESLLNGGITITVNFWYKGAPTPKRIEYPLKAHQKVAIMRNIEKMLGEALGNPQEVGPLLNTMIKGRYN
UniProt O00291: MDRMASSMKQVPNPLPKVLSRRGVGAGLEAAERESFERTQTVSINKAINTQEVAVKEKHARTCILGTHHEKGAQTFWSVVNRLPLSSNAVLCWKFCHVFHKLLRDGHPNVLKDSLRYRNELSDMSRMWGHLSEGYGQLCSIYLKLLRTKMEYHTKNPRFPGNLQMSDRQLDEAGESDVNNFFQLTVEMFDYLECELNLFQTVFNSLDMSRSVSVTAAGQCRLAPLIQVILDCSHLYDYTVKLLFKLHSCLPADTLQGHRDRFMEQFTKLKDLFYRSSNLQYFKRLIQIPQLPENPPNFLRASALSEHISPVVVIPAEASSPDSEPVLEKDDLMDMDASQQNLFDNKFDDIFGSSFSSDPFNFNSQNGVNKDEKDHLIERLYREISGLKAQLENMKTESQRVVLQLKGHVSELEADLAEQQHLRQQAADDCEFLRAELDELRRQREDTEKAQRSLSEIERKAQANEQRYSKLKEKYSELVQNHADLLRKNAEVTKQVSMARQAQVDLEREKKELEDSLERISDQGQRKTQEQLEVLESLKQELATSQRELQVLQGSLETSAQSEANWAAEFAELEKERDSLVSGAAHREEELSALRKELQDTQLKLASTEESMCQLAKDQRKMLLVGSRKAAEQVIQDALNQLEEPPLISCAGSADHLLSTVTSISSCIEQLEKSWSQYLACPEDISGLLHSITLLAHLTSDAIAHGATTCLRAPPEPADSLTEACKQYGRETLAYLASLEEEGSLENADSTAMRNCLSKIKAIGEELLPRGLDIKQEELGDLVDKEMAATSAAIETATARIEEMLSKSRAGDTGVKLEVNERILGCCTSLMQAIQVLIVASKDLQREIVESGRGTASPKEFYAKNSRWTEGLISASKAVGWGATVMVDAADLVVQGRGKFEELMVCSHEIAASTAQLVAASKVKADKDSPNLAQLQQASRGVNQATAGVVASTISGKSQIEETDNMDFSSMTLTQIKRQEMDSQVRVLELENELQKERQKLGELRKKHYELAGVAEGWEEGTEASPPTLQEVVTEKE
UniProt P52272: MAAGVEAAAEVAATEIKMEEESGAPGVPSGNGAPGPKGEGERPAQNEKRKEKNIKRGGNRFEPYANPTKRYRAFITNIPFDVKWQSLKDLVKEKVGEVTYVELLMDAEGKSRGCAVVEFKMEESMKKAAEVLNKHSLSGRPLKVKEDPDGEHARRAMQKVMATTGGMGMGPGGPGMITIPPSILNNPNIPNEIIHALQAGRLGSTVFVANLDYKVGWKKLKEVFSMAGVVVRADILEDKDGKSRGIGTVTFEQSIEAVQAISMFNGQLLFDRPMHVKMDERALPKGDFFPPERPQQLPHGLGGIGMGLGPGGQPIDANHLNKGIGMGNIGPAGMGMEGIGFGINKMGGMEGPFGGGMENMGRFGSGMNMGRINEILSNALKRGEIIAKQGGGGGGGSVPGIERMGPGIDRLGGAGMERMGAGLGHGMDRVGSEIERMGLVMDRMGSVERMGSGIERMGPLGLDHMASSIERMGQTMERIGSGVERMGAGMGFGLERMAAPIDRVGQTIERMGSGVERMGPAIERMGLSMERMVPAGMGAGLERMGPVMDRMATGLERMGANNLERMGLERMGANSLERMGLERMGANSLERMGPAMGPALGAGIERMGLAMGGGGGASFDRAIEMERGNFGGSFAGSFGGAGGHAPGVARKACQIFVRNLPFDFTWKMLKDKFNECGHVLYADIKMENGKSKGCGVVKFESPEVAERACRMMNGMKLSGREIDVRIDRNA
UniProt Q53GQ0: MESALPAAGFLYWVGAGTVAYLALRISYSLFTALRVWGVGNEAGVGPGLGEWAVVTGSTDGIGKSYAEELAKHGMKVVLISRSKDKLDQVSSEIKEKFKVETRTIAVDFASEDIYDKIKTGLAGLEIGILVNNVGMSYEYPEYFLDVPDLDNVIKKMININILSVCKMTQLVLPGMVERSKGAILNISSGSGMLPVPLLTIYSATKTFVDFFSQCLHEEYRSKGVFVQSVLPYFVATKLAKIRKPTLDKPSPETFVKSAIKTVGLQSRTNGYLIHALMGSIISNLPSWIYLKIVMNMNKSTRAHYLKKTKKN
UniProt Q1KMD3: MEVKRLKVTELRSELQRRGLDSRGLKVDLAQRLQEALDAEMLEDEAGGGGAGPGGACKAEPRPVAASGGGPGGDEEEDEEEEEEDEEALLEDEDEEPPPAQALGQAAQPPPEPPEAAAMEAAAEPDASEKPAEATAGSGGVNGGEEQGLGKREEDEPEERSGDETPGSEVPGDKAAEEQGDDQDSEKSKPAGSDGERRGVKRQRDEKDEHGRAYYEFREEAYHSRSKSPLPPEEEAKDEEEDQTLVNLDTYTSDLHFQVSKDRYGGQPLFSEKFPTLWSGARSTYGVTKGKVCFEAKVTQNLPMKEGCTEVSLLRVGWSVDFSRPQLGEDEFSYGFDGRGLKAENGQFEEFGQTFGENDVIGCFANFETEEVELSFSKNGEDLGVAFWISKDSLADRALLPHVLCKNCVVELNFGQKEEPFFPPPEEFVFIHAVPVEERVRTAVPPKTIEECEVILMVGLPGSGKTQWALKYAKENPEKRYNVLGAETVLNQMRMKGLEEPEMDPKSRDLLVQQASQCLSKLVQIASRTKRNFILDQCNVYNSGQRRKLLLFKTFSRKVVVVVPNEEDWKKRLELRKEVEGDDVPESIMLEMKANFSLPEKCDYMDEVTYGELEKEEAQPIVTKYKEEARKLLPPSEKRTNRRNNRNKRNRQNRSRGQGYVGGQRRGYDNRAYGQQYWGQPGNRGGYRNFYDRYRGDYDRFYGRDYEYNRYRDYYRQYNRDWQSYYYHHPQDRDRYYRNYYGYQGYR
UniProt P05362: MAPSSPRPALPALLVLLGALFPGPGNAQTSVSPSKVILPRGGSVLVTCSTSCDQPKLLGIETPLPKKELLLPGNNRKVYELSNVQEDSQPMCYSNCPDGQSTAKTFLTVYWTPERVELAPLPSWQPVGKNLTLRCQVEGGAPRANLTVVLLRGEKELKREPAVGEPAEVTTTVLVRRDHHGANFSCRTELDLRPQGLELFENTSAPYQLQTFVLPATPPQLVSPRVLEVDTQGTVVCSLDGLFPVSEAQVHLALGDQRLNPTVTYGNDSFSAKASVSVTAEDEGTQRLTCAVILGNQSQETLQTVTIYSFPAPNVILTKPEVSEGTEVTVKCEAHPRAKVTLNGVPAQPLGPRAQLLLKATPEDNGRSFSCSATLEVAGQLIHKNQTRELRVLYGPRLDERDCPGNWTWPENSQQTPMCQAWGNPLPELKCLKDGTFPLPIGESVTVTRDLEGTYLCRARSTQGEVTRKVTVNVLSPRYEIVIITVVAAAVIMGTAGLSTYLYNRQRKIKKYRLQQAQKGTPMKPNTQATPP
UniProt P09429: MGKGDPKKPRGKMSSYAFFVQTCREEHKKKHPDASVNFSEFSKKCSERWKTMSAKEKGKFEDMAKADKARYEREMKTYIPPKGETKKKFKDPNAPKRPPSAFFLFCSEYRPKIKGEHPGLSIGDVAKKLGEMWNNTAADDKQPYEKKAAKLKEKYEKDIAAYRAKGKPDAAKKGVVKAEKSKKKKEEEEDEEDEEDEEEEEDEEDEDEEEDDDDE

Tests used:
Experiment in all cases: log2 fold change, soluble protein after heating vs DMSO (PISA); higher = thermal stabilisation; K562 cells, 10 uM, 30 min; active = over 0.2 and 3.5 SD of the protein, either way, in both replicates (recomputed)
[1] = compound: C1COCCN1CCN2C3=CC=CC=C3N=C2NC(=O)C4=CC(=CC=C4)[N+](=O)[O-] [IRAK-1-4 Inhibitor I]
In short: (§1)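 Aliquots of K562 cells (2×10^6 cells/mL) treated with 10 μM compound for 30 min were heated for 3 min over 48°C-58°C. After pooling and extraction in PBS with 0.5% NP-40 at 4°C, soluble protein from a 21,000xg, 90 min spin was quantified by TMTpro 16plex LC-MS/MS with channel sums equalised. Thermal stability is expressed against control samples, from duplicates, as a log2 fold change.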

[2] = compound: C=CC(=O)N1CCC[C@@H](n2nc(-c3ccc(Oc4ccccc4)cc3)c3c(N)ncnc32)C1 [ibrutinib]
In short: as §1

[3] = compound: CC(=O)c1cnc2ccc(-c3cc(Cl)c(O)c(Cl)c3)nc2c1N[C@H]1CC[C@H](CN(C)C)CC1
In short: as §1

[4] = compound: CC(C)(C)Cn1c(N)nc2ccc(-c3[nH]c(C(C)(C)C)nc3-c3ccc(F)cc3)nc21 [ralimetinib]
In short: as §1

[5] = compound: CC(C)(O)CC(=O)NCCn1ccc2ncnc(Nc3ccc(Oc4cccc(C(F)(F)F)c4)c(Cl)c3)c21
In short: as §1

[6] = compound: CC(C)C1=C2N=C(C=C(N2N=C1)NCC3=CC=CC=C3)NCCCCCCN
In short: as §1

[7] = compound: CC(C)C[C@@H](C=O)NC(=O)[C@H](CC(C)C)NC(=O)[C@H](CC(C)C)NC(=O)OCc1ccccc1
In short: as §1

[8] = compound: CC(C)N(C[C@H]1O[C@@H](n2cnc3c(N)ncnc32)[C@H](O)[C@@H]1O)[C@H]1C[C@@H](CCc2nc3cc(C(C)(C)C)ccc3[nH]2)C1 [pinometostat]
In short: as §1

[9] = compound: CC1=C(C(CC(=O)N1)C2=CC=C(C=C2)C(F)(F)F)C(=O)NC3=C(C=C4C(=C3)C=NN4)F
In short: as §1

[10] = compound: CC1=C(C2=C(C=C1)C(=O)C3=CC=CC=C3N2CCCN)C
In short: as §1

[11] = compound: CC1=C(C=C(C=C1)NC(=O)C2=CC(=CC=C2)N(C)C)NC(=O)C3=CC=C(C=C3)O
In short: as §1

[12] = compound: CC1=CC=C(C=C1)SC2=C3C=C(SC3=CN=C2)C(=O)N
In short: as §1

[13] = compound: CC1=NC(=CC=C1)C2=C(N=C(N2)C(C)(C)C)C3=CC4=NC=CN=C4C=C3
In short: as §1

[14] = compound: CCCCN(Cc1ccc(C(=O)NO)cc1)C(=O)Nc1ccccc1 [Nexturastat A]
In short: as §1

[15] = compound: CCCS(=O)(=O)Nc1ccc(F)c(C(=O)c2c[nH]c3ncc(-c4ccc(Cl)cc4)cc23)c1F [vemurafenib]
In short: as §1

[16] = compound: CCCS(=O)(=O)Nc1ccc(F)c(C(=O)c2c[nH]c3ncc(Cl)cc23)c1F
In short: as §1

[17] = compound: CCCc1cc(C)[nH]c(=O)c1CNC(=O)c1cc(-c2ccnc(N3CCN(C)CC3)c2)cc2c1cnn2C(C)C
In short: as §1

[18] = compound: CCN(CC)Cc1ccc2cc(COC(=O)Nc3ccc(C(=O)NO)cc3)ccc2c1 [givinostat]
In short: as §1

[19] = compound: CCN(CCCOc1ccc2c(Nc3cc(CC(=O)Nc4cccc(F)c4)[nH]n3)ncnc2c1)CCOP(=O)(O)O [barasertib]
In short: as §1

[20] = compound: CC1=C(C=C(C=C1)NC(=O)C2=CC(=CC=C2)C(C)(C)C#N)NC3=CC4=C(C=C3)N=CN(C4=O)C
In short: as §1

Row | Target | log2 fold change [1] | log2 fold change [2] | log2 fold change [3] | log2 fold change [4] | log2 fold change [5] | log2 fold change [6] | log2 fold change [7] | log2 fold change [8] | log2 fold change [9] | log2 fold change [10] | log2 fold change [11] | log2 fold change [12] | log2 fold change [13] | log2 fold change [14] | log2 fold change [15] | log2 fold change [16] | log2 fold change [17] | log2 fold change [18] | log2 fold change [19] | log2 fold change [20]
1 | HIF1AN (UniProt Q9NWT6) | inactive: 0.019 | inactive: 0.067 | inactive: 0.102 | inactive: 0.189 | inactive: 0.109 | inactive: 0.072 | inactive: -0.055 | inactive: 0.015 | inactive: -0.035 | inactive: -0.168 | inactive: 0.014 | inactive: -0.026 | inactive: 0.032 | inactive: 0.181 | inactive: 0.025 | inactive: -0.105 | inactive: 0.092 | inactive: -0.033 | inactive: 0.048 | –
2 | HIP1 (UniProt O00291) | inactive: -0.002 | inactive: 0.083 | inactive: -0.07 | inactive: -0.003 | inactive: -0.035 | inactive: -0.056 | inactive: 0.079 | inactive: 0.045 | – | inactive: 0.038 | inactive: -0.004 | inactive: -0.028 | inactive: 0.002 | active: 0.286 | inactive: -0.003 | inactive: 0.056 | inactive: 0.233 | inactive: 0.043 | inactive: 0.01 | inactive: -0.086
3 | HRAS (UniProt P01112) | inactive: 0.093 | inactive: 0.143 | inactive: 0.065 | inactive: 0 | inactive: -0.004 | inactive: 0.047 | inactive: 0.13 | inactive: -0.059 | – | inactive: -0.121 | inactive: -0.065 | inactive: -0.031 | inactive: 0.096 | inactive: 0.147 | inactive: 0.064 | inactive: -0.083 | inactive: 0.089 | inactive: -0.065 | inactive: 0.063 | inactive: -0.042
4 | HNRNPM (UniProt P52272) | inactive: -0.156 | inactive: 0.004 | inactive: -0.003 | inactive: 0.16 | inactive: -0.001 | inactive: -0.18 | inactive: 0.231 | inactive: 0.308 | inactive: -0.009 | inactive: -0.009 | inactive: -0.053 | inactive: -0.047 | inactive: -0.045 | inactive: 0.253 | inactive: 0.039 | inactive: 0.077 | inactive: 0.078 | inactive: 0.225 | inactive: 0.044 | inactive: 0.007
5 | HSD17B12 (UniProt Q53GQ0) | inactive: -0.01 | inactive: 0.038 | inactive: -0.127 | inactive: -0.037 | active: 0.289 | inactive: 0.22 | inactive: -0.062 | inactive: -0.064 | – | inactive: 0.031 | inactive: 0.032 | inactive: 0 | inactive: 0.022 | inactive: -0.111 | inactive: -0.006 | inactive: -0.01 | inactive: -0.141 | inactive: -0.018 | inactive: -0.04 | inactive: 0.094
6 | HNRNPUL2 (UniProt Q1KMD3) | inactive: -0.033 | inactive: -0.022 | inactive: -0.014 | inactive: -0.033 | inactive: 0.024 | inactive: 0.117 | inactive: 0.054 | inactive: 0.107 | – | inactive: 0.023 | inactive: 0.008 | inactive: -0.074 | inactive: -0.032 | inactive: 0.109 | inactive: -0.047 | inactive: -0.027 | inactive: -0.002 | inactive: 0.047 | inactive: -0.027 | inactive: 0.009
7 | ICAM1 (UniProt P05362) | inactive: 0.056 | inactive: 0.042 | inactive: -0.039 | inactive: -0.02 | inactive: 0.002 | inactive: 0.157 | inactive: -0.001 | inactive: -0.009 | – | inactive: 0.045 | inactive: 0.016 | inactive: 0.033 | inactive: -0.016 | inactive: 0.02 | inactive: 0.018 | inactive: -0.034 | inactive: 0.001 | inactive: -0.014 | inactive: -0.021 | inactive: -0.055
8 | HMGB1 (UniProt P09429) | inactive: 0.111 | inactive: -0.008 | inactive: 0.019 | inactive: 0.129 | inactive: 0.064 | inactive: 0.125 | inactive: 0.1 | inactive: -0.063 | inactive: 0.03 | inactive: 0.119 | inactive: 0.052 | inactive: 0.007 | inactive: 0.02 | inactive: -0.023 | inactive: -0.033 | inactive: -0.011 | inactive: 0.07 | inactive: -0.06 | inactive: 0.017 | inactive: 0.009
